Measurements reported in PubChem BioAssay AID504774 (Drosophila RNAi Screening Center, 2011).

- Aim: 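Genes required for cells to withstand methyl methanesulphonate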 (primary screen)
- Cell system: Drosophila Kc167 cells
- Reagents: long dsRNA against Drosophila genes, about 0.25 µg dsRNA per well
- Timing: about 6 days: 3 days knock-down, then 3 days with or without MMS
- Challenge: methyl methanesulphonate 0.004% (w/v) for 3 days after knock-down
- Measurement: 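ATP-dependent luminescence as a measure of live cells in MMS-exposed wells, quantile normalised within each plate, with replicate values also given as a mean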
- Scale: mean viability with MMS: higher = more surviving cells after MMS
In all, the deposit lists about 23,000 reagents; below is a random part of those with a known target gene and a result. 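Values are quantile-normalised luminescence on an arbitrary scale; higher means more cells surviving MMS.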 The numbers tell different reagents against one gene apart. A plus sign joins genes that one reagent is predicted to hit. Further read-outs or replicates are left out here.

mean viability with MMS, by target and reagent
CG12693: #1 3.69e6
CG13833: #1 3.52e6
ABCB7: #1 3.41e6
CG9903: #1 3.63e6
CG42812 + CG42811: #1 3.61e6; #2 3.59e6
CG32544: #1 3.57e6
CG33225: #1 3.32e6
Or82a: #1 3.55e6
DhpD: #1 3.48e6
tctn + B9d2: #1 3.47e6
CG31560: #1 3.37e6
IleRS-m: #1 3.61e6
Polr3H: #1 3.47e6
CG5731: #1 3.68e6
CG15347: #1 3.51e6
Bsg: #1 3.30e6; #2 3.84e6
lncRNA:noe: #1 3.47e6
CG15093: #1 3.46e6
CG30222: #1 3.59e6; #2 3.68e6
UGP + PGRP-LF: #1 3.51e6
btsz: #1 3.17e6; #2 3.53e6
CG2818: #1 3.72e6
Ugt50B3: #1 3.62e6; #2 3.65e6; #3 3.48e6
mas: #1 3.65e6
CG3999: #1 3.54e6
Drp1: #1 3.33e6
CG7695: #1 3.54e6
Hecw: #1 3.57e6; #2 3.65e6
mv: #1 3.44e6; #2 3.53e6
CG30378: #1 3.42e6
IFT57: #1 3.72e6
Sdc: #1 3.46e6
ssp2: #1 3.39e6
tous: #1 3.73e6
Ing5: #1 3.33e6
CG11885: #1 1.79e6
CG3701 (retired record): #1 3.47e6; #2 3.33e6
lqfR: #1 3.52e6; #2 3.23e6
CG2076: #1 3.71e6
CG4324: #1 3.50e6
obst-B: #1 3.71e6

12 entries already listed, arranged by “mean viability with MMS”, high to low.
target	reagent no.	mean viability with MMS
Bsg	2	3.84e6
CG5731	1	3.68e6
CG30222	2	3.68e6
CG30222	1	3.59e6
btsz	2	3.53e6
CG15347	1	3.51e6
UGP + PGRP-LF	1	3.51e6
Polr3H	1	3.47e6
lncRNA:noe	1	3.47e6
CG15093	1	3.46e6
Bsg	1	3.30e6
btsz	1	3.17e6

Additional reagents follow.
mean viability with MMS, by target and reagent
Rab3: #1 3.44e6
CG31974: #1 3.49e6
brv2: #1 3.46e6
CG13403: #1 3.59e6
Nf-YC: #1 2.67e6; #2 3.60e6
eIF4EHP: #1 3.67e6; #2 3.48e6
spn-D: #1 3.53e6
Acbp6: #1 3.63e6
CG14269: #1 3.41e6
psd: #1 3.46e6
akirin: #1 3.18e6
inaE: #1 3.60e6; #2 3.60e6; #3 3.58e6; #4 3.66e6
S-Lap1: #1 3.69e6
CG7550: #1 3.57e6
CG13358: #1 3.65e6
SCAR: #1 3.48e6
Or33a: #1 3.56e6
CG13712: #1 3.64e6
Dscam4: #1 3.56e6; #2 3.73e6; #3 3.65e6; #4 3.31e6; #5 3.84e6
Esp: #1 3.48e6
Pcp: #1 3.63e6
CG4390: #1 3.47e6
CG34046 (retired record): #1 3.60e6
Uhg3: #1 3.59e6
CG14125: #1 3.55e6
CG6333: #1 3.59e6
CG5787: #1 3.64e6
